Assay results reported in PubChem BioAssay AID2685 (National Center for Advancing Translational Sciences (NCATS), 2010).
Some of the results follow. The main result of the screen is listed elsewhere. These columns were measured beside it and carry no call. The list favours compounds with an active or inconclusive main result. The note in brackets gives the kind of curve behind each potency; many fits are weak.

Test: qHTS Assay for Lipid Storage Modulators in Drosophila S3 Cells;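 for cell number change: cells counted by Cell Tracker Red CMTPX staining in the red channel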
Settings: BODIPY lipid droplet fluorescence, 18-24 h; for cell number change: measured here: cell count max response, cells fed with added oleic acid
Procedure, shortened: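 Laser-scanning cytometry quantifies lipid droplet accumulation (500–530 nm total intensity; droplet/cell object ratio) in oleic acid-fed (400 uM added) Drosophila S3 cells treated with a concentration series. 20 uM Triacsin C defined 100% inhibition.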

[1] = measured here: lipid fluorescence (Fed channel) AC50, cells fed with added oleic acid
[2] = measured here: cell number channel AC50, cells fed with added oleic acid

CC(=O)Oc1ccc2c(C)cc(=O)oc2c1
cell number change: -0.849% | AC50 [1]: 29.1 µM [falling, single point]

COc1cccc(SCc2noc(C(=O)NCc3ccccc3)c2C(=O)NCc2ccccc2)c1
cell number change: -4.4% | AC50 [1]: 6.51 µM [falling, single point]

COc1cccc(N2CCN(S(=O)(=O)c3ccc(CN4C(=O)c5cccnc5C4=O)cc3)CC2)c1
cell number change: -5.9% | AC50 [1]: 29.1 µM [rising, single point]

Cc1ccccc1NC(=O)C1CCCN1S(=O)(=O)c1cccc2cccnc12 (configuration not stated)
cell number change: -7.14% | AC50 [1]: 0.092 µM [rising, full curve]

O=C(Cn1nnc2c(sc3nc4c(c(-c5ccccc5)c32)CCC4)c1=O)c1ccccc1
cell number change: -91.4% | AC50 [2]: 29.1 µM [falling, single point]

CCOC(=O)Cc1csc(NC(=O)c2cnc3sc(C)cn3c2=O)n1
cell number change: 12% | AC50 [2]: 2.31 µM [falling, partial curve, poor fit] | AC50 [1]: 18.4 µM [falling, partial curve]

Cc1cccc(N2CCN(C(=O)CSc3nnnn3C3CC3)CC2)c1C
cell number change: -40.6% | AC50 [2]: 29.1 µM [falling, partial curve] | AC50 [1]: 1.46 µM [falling, full curve, poor fit]

O=C(c1ccc(S(=O)(=O)N2CCC(c3nc4ccccc4[nH]3)CC2)cc1)N1CCOCC1
AC50 [2]: 0.731 µM [rising, partial curve, poor fit]

O=C(CCC(=O)c1ccc(F)cc1)NC1CCCN(Cc2ccccc2F)C1 (configuration not stated)
cell number change: -0.88% | AC50 [1]: 6.51 µM [rising, single point]

Cc1ccc2oc(=O)n(Cc3ccccc3)c2c1
cell number change: 17.7% | AC50 [1]: 29.1 µM [rising, single point]

Cc1cc(Cl)nc(SCC(=O)c2ccccc2)n1
cell number change: -21.4% | AC50 [1]: 0.206 µM [falling, full curve, poor fit]

COc1ccc(CN2CCOCC2)cc1
cell number change: 2.33% | AC50 [1]: 0.58 µM [falling, full curve, poor fit]

Cc1sc2nc(CN(C(=O)c3cccs3)C3CCCC3)[nH]c(=O)c2c1C
cell number change: 51.8% | AC50 [2]: 23.1 µM [rising, single point] | AC50 [1]: 5.17 µM [falling, single point]

Nn1c(SCC(=O)Nc2nccs2)nncc1=O
cell number change: -6.49% | AC50 [1]: 0.116 µM [falling, full curve]

Cc1sc2nc(SCC(=O)N3CCCC3)[nH]c(=O)c2c1C
AC50 [1]: 6.51 µM [falling, single point]

Cc1ccc(C)c(-n2c3nc(=O)[nH]c(=O)c-3cc3cc([N+](=O)[O-])ccc32)c1
cell number change: 0.422% | AC50 [1]: 2.59 µM [falling, partial curve]

CC1CCN(Cc2nnnn2CCCC(=O)N(C)C(C)c2ccccn2)CC1 (configuration not stated)
cell number change: -8.78% | AC50 [1]: 4.11 µM [rising, single point]

COc1ccc(Cc2nnc(SC)[nH]c2=O)cc1OC
cell number change: 2.73% | AC50 [1]: 0.146 µM [falling, full curve, poor fit]

COc1ccccc1NC(=O)c1ccc(NC(=O)COC(=O)C2(C)CC2(Cl)Cl)cc1 (configuration not stated)
cell number change: 83.3% | AC50 [2]: 10.3 µM [rising, partial curve] | AC50 [1]: 1.46 µM [rising, full curve, poor fit]

FC(F)(F)c1nc(NCC2CCCO2)c2nnn(Cc3ccccc3Cl)c2n1 (configuration not stated)
cell number change: 27.5% | AC50 [2]: 0.651 µM [rising, full curve, poor fit]

Cc1ccccc1C(=O)NC(=S)Nc1ccc(S(=O)(=O)N2CCN(C)CC2)cc1
cell number change: 29.9% | AC50 [2]: 0.326 µM [rising, full curve, poor fit] | AC50 [1]: 3.66 µM [rising, full curve]

CCOc1ccc(S(=O)(=O)NCc2ccncc2)cc1NC(=O)c1ccccc1F
cell number change: 8.97%

NC(=O)c1ccc(NC(=O)CCCc2nc(-c3ccccc3Cl)no2)cc1
cell number change: 58.7% | AC50 [2]: 2.06 µM [rising, full curve] | AC50 [1]: 2.59 µM [rising, full curve]

CC(=O)Nc1ccccc1OCC(=O)N(Cc1ccccc1)C(C)C
cell number change: -12.7% | AC50 [1]: 1.16 µM [falling, single point]

CCN(CC)S(=O)(=O)c1ccc(N=N/C(C(C)=O)=C(/C)O)cc1
AC50 [1]: 3.26 µM [rising, partial curve]

COc1cc(C(=O)OCC(=O)NCCC2=CCCCC2)ccc1OCC(C)C
cell number change: 7.54% | AC50 [1]: 0.146 µM [falling, full curve]

O=C(CN(Cc1ccccc1)C(=O)c1ccco1)NCc1ccc(F)cc1
cell number change: 45.5% | AC50 [2]: 29.1 µM [rising, single point] | AC50 [1]: 20.6 µM [rising, partial curve]

CCCCCCOC(=O)C(C#N)c1nc2ccccc2nc1N1CCOCC1 (configuration not stated)
cell number change: -2.55% | AC50 [1]: 0.00461 µM [rising, full curve, poor fit]

COC(=O)C1=C(C)N(C(C)C)C(=O)C1(NC(=O)C1CCCCC1)C(F)(F)F (configuration not stated)
AC50 [1]: 0.00461 µM [falling, full curve, poor fit]

COc1ccccc1CNC(=O)C1CCCN(S(C)(=O)=O)C1 (configuration not stated)
cell number change: -51.4% | AC50 [2]: 29.1 µM [falling, single point] | AC50 [1]: 29.1 µM [falling, single point]

O=C(Nc1ccc(Cl)c(Cl)c1)c1ccc(Cn2c(=O)[nH]c3ccsc3c2=O)cc1
cell number change: -58.1% | AC50 [2]: 18.4 µM [falling, single point] | AC50 [1]: 16.4 µM [falling, single point]

CC(C(=O)Nc1ccc(F)c(F)c1F)N(C)CC(=O)Nc1ccccc1Br (configuration not stated)
cell number change: 2.2%

Cn1c(CN2CCCCC2)nc2cc(NC(=O)c3ccccc3)ccc21
cell number change: 163% | AC50 [1]: 29.1 µM [rising, partial curve]

COc1ccc(OCC(=O)Nc2ccc(S(=O)(=O)N3CCCC3)cc2)cc1
cell number change: 25%

O=C(c1cccc(Oc2ccccc2)c1)N1CCN(c2ccccn2)CC1
cell number change: 51.8% | AC50 [2]: 29.1 µM [rising, single point]

CC(C)(C)NC(=O)CSc1nnc(-c2ccco2)n1Cc1ccco1
cell number change: 6.82% | AC50 [1]: 6.51 µM [falling, single point]

CN(Cc1cccc2cnccc12)C(=O)c1cc(COc2ccc(F)cc2F)on1
cell number change: -39.2% | AC50 [2]: 20.6 µM [falling, single point] | AC50 [1]: 29.1 µM [falling, single point]

CN(Cc1nnc(-c2ccc(F)cc2)o1)c1ccccc1
cell number change: 16.7%

Cc1cc(C(=O)COC(=O)c2ccncc2)c(C)n1Cc1ccco1
cell number change: -12.5%

CCC(C)n1c(SCC(=O)NC(=O)Nc2ccc3c(c2)OCCO3)nc2ccccc2c1=O (configuration not stated)
AC50 [2]: 0.206 µM [rising, full curve] | AC50 [1]: 0.231 µM [rising, full curve]

O=C(O)C1=NOC(CNC(=O)c2ccccc2Cl)C1 (configuration not stated)
cell number change: -50.7% | AC50 [2]: 29.1 µM [falling, single point]

O=C(CN1CCN(S(=O)(=O)c2ccc(F)c(Cl)c2)CC1)N1CCc2ccccc21
cell number change: 34.4% | AC50 [2]: 29.1 µM [rising, single point] | AC50 [1]: 20.6 µM [rising, partial curve]

COc1ccc2cc(Br)ccc2c1CC(=O)NC(C)(C)C
cell number change: 34%

COc1ccc(N2C(=O)N(Cc3ccc(C)cc3)c3ccccc3S2(=O)=O)cc1
cell number change: 49.3% | AC50 [2]: 29.1 µM [rising, single point] | AC50 [1]: 29.1 µM [rising, single point]

Cc1nc2ccc(S(=O)(=O)Nc3cc(-c4nc5cccnc5s4)ccc3C)cc2s1
cell number change: 1.69% | AC50 [1]: 2.59 µM [rising, partial curve]

CSc1ccc(S(=O)(=O)Nc2ccc3c(c2)NC(=O)CC3)cc1
cell number change: -15.8% | AC50 [1]: 23.1 µM [rising, partial curve]

CCCc1cc(=O)n2[nH]c(NCc3c(Cl)cccc3Cl)nc2n1
cell number change: 28.4% | AC50 [1]: 6.51 µM [rising, single point]

COc1ccc(CC(=O)NNS(=O)(=O)c2ccc(F)cc2)cc1
cell number change: 4.76% | AC50 [1]: 6.51 µM [rising, single point]

Cc1cc(C)cc(C(=O)NCC(=O)OCc2nc(N)nc(Nc3ccccc3C)n2)c1
cell number change: 0.777%

Cc1cc(C)n2nc(/C(C#N)=C/c3ccccc3)c(C#N)c2n1
cell number change: -17.9% | AC50 [1]: 0.116 µM [rising, full curve, poor fit]

CNc1snc(C)c1C(=O)OCC(=O)N(C)Cc1ccccc1
AC50 [1]: 18.4 µM [falling, partial curve, poor fit]

O=C(COC(=O)[C@@H]1CC(O)CN1S(=O)(=O)c1ccc(Cl)cc1)NC(=O)NCc1ccccc1 (some centres not stated)
cell number change: 6.34% | AC50 [1]: 29.1 µM [rising, single point]

COc1cc(/C=C/[N+](=O)[O-])ccc1OCc1cccc(C(=O)O)c1
cell number change: -5.7% | AC50 [1]: 29.1 µM [falling, single point]

COc1ccc(Nc2ncc3c(n2)CC(c2ccc(OC)cc2)CC3=O)cc1 (configuration not stated)
cell number change: 139% | AC50 [2]: 3.66 µM [rising, full curve] | AC50 [1]: 2.59 µM [rising, full curve]

N#C/C(=C(/O)CCl)c1nc2c(s1)CCc1ccccc1-2
cell number change: 33.8%

Cn1c(N)c(C#N)c2c(c1=S)COC(C)(C)C2
cell number change: 12.9% | AC50 [1]: 4.61 µM [rising, single point]

CCC(C)(C(=O)Nc1ccc(OC)cc1)N(C)C(=O)Cn1nnnc1N (configuration not stated)
cell number change: -11.4% | AC50 [1]: 6.51 µM [rising, partial curve]

CCOC(=O)CS(=O)(=O)c1nc(-c2ccc(F)cc2)cc(C(F)(F)F)n1
cell number change: -69.2% | AC50 [2]: 5.17 µM [falling, partial curve, poor fit] | AC50 [1]: 29.1 µM [falling, single point]
